Assay results from PubChem BioAssay AID1259415 (National Center for Advancing Translational Sciences (NCATS), 2018).
Out of some 410,000 compounds screened, about 18,000 (4.4%) were called active. Inconclusive means that the source gave no clear call. Such entries were picked first, then a sample of the others. Rule as the data show it: active = activity change below about -60%; inconclusive = no clear call, values can overlap the other calls; inactive = above about -39%.

Experiment: qHTS Assay for inhibitors of the human cytomegalovirus (HCMV)
Conditions: HFF cells, HCMV-luciferase reporter, 72 h; at 57.5 µM; active compounds read low
Procedure, shortened: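 HFF cells seeded 16 h at 37C, treated with compounds, infected with luciferase-reporter HCMV at MOI 1 PFU/cell; luciferase read at 72 h post infection, normalized to buffer-only and Salinomycin controls.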
% is scaled to controls: 0 for no effect and ±100 for the full control effect.

SMILES | activity change, negative = inhibition
O=c1[nH]c(C2CCN(S(=O)(=O)Cc3ccccc3)CC2)nc2c1nnn2Cc1cccc(Cl)c1 | inactive: -0.248%
CC1Cc2ccccc2N1C(=O)CSC1=NCCS1 (centres undefined) | inconclusive: -55.1%
O=C(Nc1cccc(-c2nc3ccccc3o2)c1)c1cccnc1 | inconclusive: -59.1%
Cc1ccc(CN2C(=O)CN(C3CCCCCC3)C(=O)C2c2ccc(F)cc2)cc1 (centres undefined) | inconclusive: -43.8%
COC(=O)Cc1ccc(NC(=S)Nc2cccc(C)n2)cc1 | inconclusive: -49.8%
CCN1CCN(S(=O)(=O)c2ccc(OC)c(NC(=O)c3ccccc3F)c2)CC1 | inconclusive: -59.1%
Cc1cc(NC(=O)CSc2nnnn2-c2ccccc2C)no1 | active: -113%
CN(C(=O)CSc1nc2ccc(NC(=O)c3cccs3)cc2s1)c1ccccc1 | active: -75.7%
COc1ccc2[nH]c(=O)c(CN(Cc3nnnn3Cc3ccccc3)CC3CCCO3)cc2c1 (centres undefined) | inactive: -6.48%
C/C(=N\NC(=O)C(C)n1nc(C)c([N+](=O)[O-])c1C)c1ccccc1O (centres undefined) | active: -101%
N#Cc1cc2c(ccc3ccccc32)oc1=O | inconclusive: -41.7%
COc1ccc(-c2coc3cc(OC(=O)N4CCOCC4)ccc3c2=O)cc1 | inconclusive: -44%
CCn1nc(C)cc1C(=O)NC1CCCc2c1cnn2-c1cc(F)cc(F)c1 (centres undefined) | inconclusive: -56.3%
S=c1[nH]c2cc3ccccc3cc2[nH]1 | inactive: -38.6%
O=C(/C=C\c1ccco1)Nc1ccc(N2CCN(C(=O)c3ccccc3)CC2)cc1 | inconclusive: -48.1%
O=C(Nc1ccccc1N1CCOCC1)C1CCN(S(=O)(=O)c2cccc(C(F)(F)F)c2)CC1 | inconclusive: -50.6%
O=C(N/N=C\C=C\c1ccco1)c1cc(-c2ccc3ccccc3c2)n[nH]1 | inconclusive: -48.7%
CC1(C(=O)NS(=O)(=O)C2CC2)CCCN(C(=O)c2cccc(C(F)(F)F)c2)C1 (centres undefined) | inconclusive: -47%
CC1(C(=O)N(Cc2ccccc2)Cc2ccccc2)CC1(Br)Br (centres undefined) | inconclusive: -50.9%
Cc1c(C#N)c(N)c(C(=O)c2ccccc2)n1Cc1ccccc1 | inconclusive: -40.8%
CS(=O)(=O)N1CCCC(C(=O)Nc2ccc(F)c(F)c2)C1 (centres undefined) | inconclusive: -42.9%
COC(=O)C(c1ccccc1)(c1cn(C)c2c(C)cccc12)C(Nc1ccccc1)c1ccccc1 (centres undefined) | inactive: -16.9%

SMILES | activity change, negative = inhibition
O=S(=O)(N/N=C/c1ccc(Cl)cc1)c1ccc(Cc2ncc(C(F)(F)F)cc2Cl)s1 | inconclusive: -41.6%
COc1ccc(NC(=O)c2cc(-c3ccc(C)cc3)on2)cc1OC | inactive: -5.56%
COc1ccccc1-c1noc2c1C(=O)N(Cc1cn(-c3ccc(Cl)cc3)nn1)CC2 | inconclusive: -40.3%
Cn1c(SCC(=O)Nc2ccccc2)nc2c([nH]c3ccccc32)c1=O | inconclusive: -58.9%
Cc1ccc(-c2noc(N=O)c2NO)cc1 | inconclusive: -50.4%
Cc1ccc2cc(CN(CC3CCCO3)C(=O)NC3CCCCC3)c(=O)[nH]c2c1C (centres undefined) | inconclusive: -52.6%
O=C(Nc1ccc(C(=O)N2CCCC2)cc1)c1ccccc1 | inactive: 43.3%
O=C1N(c2ccccc2)C[C@@H]2C[C@@H](c3cc4ccccc4o3)N3CCC[C@@]123 | active: -99.4%
COc1cccc(N2CCN(C(=O)C3CCC(=O)N(C4CCCCCC4)C3)CC2)c1 (centres undefined) | inactive: 22.4%
COc1ccc(-c2cc(C(F)(F)F)nc(N3CCCCCC3)n2)cc1 | inconclusive: -45.3%
Cc1cc(Br)ccc1NC(=O)c1ccccc1-c1ccccc1 | inconclusive: -42.7%
COC(=O)C(=N/Nc1ccccc1C(=O)OC)/C(C)=N/O | inconclusive: -42.8%
C#CCn1c(-c2ccccc2)ccc(C#N)c1=O | inconclusive: -49.6%
CCN(Cc1ccccc1)C(=S)NC(=O)c1ccccc1Br | inconclusive: -58.7%
COc1ccc(/C=N/NC(=O)Cc2cc(OC)c(OC)cc2[N+](=O)[O-])cc1 | inconclusive: -49.9%
CCc1ccc(N(C(=O)c2snc(C(N)=O)c2N)C(C(=O)NC2CCCC2)c2ccco2)cc1 (centres undefined) | inconclusive: -53.4%
CSCCC(NS(=O)(=O)c1c(Cl)cccc1Cl)C(=O)O (centres undefined) | inconclusive: -45.2%
O=C(CCS(=O)(=O)c1ccc(Br)cc1)Nc1ccccn1 | inconclusive: -48.5%
COc1ccc(NC(=O)Nc2nnc(CC(=O)Nc3ccccc3)s2)cc1 | inconclusive: -40.3%
Cc1ccc(NC(=O)c2cccc(S(=O)(=O)N3CCN(c4ccc(F)cc4)CC3)c2)nc1 | active: -77.3%
O=C(Nc1ccc2c(c1)OCO2)C1CCCCC1 | inactive: 27.5%
O=C(NCCO)C(=O)NCC(c1cccs1)S(=O)(=O)c1ccc(F)cc1 (centres undefined) | inconclusive: -46.5%

3 compounds already listed, sorted by molar mass, rising:
SMILES | activity change, negative = inhibition
Cc1ccc(-c2noc(N=O)c2NO)cc1 | inconclusive: -50.4%
COc1ccc(/C=N/NC(=O)Cc2cc(OC)c(OC)cc2[N+](=O)[O-])cc1 | inconclusive: -49.9%
COc1ccccc1-c1noc2c1C(=O)N(Cc1cn(-c3ccc(Cl)cc3)nn1)CC2 | inconclusive: -40.3%
